In doi:10.1101/2021.12.17.473100:
These are yes or no findings as the source states them, for the method shown. In cells and extracts the contact can be indirect. Some results given as binding are weak or reduced against the parent protein; the word gives no strength.

Amino acid sequences for entries named in this document (tags omitted).
UniProt P20263: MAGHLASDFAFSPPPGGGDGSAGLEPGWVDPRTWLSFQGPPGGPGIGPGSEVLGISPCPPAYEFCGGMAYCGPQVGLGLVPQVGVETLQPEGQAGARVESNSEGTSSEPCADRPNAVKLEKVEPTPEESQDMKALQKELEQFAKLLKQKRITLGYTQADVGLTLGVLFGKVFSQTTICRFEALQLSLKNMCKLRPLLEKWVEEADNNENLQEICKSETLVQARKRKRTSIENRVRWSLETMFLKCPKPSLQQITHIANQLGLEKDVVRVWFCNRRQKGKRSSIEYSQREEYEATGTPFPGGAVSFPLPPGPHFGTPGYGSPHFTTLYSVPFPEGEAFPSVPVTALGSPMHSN

Biological target: OCT4 (mouse (endogenous in mouse ESCs)) (UniProt P20263)
Assay: co-IP

B1: ARRDC3 (protein, UniProt Q7TPQ9 1-414)
chain: MVLGKVKSLTISFDCLNDSNVPVYSSGDTVSGRVNLEVTGEIRVKSLKIHARGHAKVRWTESRNAGSNTAYTQNYTEEVEYFNHKDILIGHERDDDNSEEGFHTIHSGRHEYAFSFELPQTPLATSFEGRHGSVRYWVKAELHRPWLLPVKLKKEFTVFEHIDINTPSLLSPQAGTKEKTLCCWFCTSGPISLSAKIERKGYTPGESIQIFAEIENCSSRMVVPKAAIYQTQAFYAKGKMKEVKQLVANLRGESLSSGKTETWNGKLLKIPPVSPSILDCSIIRVEYSLMVYVDIPGAMDLLLSLPLVIGTIPLHPFGSRTSSVSSQCSMSMNWLALALPERPEAPPSYAEVVTEEQRRNNLAPVGACDDFERALQGPLFAYIQEFRFLPPPLYSEIDPNPDQSSEDRPSCPSR
binding: binds
